Experimental data taken from publication PMC5740495.
These are yes or no findings as the source states them, for the method shown. Binding seen in cells or lysates may run through a third protein. Here binding means that the protein was enriched with, or labelled near, the bait; the list need not be complete.

Molecular target: XPO1 (human), O14980
Assay: proximity labelling; BioID, large-scale, direct identification of biotinylated peptides: same NTR-BirA* lines; biotinylated peptides eluted from streptavidin beads with 80% ACN, 20% TFA after the on-bead digest, MS
Settings: remark: other sources report otherwise

binding: binds
B1: NUP153, P49790 1-1475 (protein)
chain: MASGAGGVGGGGGGKIRTRRCHQGPIKPYQQGRQQHQGILSRVTESVKNIVPGWLQRYFNKNEDVCSCSTDTSEVPRWPENKEDHLVYADEESSNITDGRITPEPAVSNTEEPSTTSTASNYPDVLTRPSLHRSHLNFSMLESPALHCQPSTSSAFPIGSSGFSLVKEIKDSTSQHDDDNISTTSGFSSRASDKDITVSKNTSLPPLWSPEAERSHSLSQHTATSSKKPAFNLSAFGTLSPSLGNSSILKTSQLGDSPFYPGKTTYGGAAAAVRQSKLRNTPYQAPVRRQMKAKQLSAQSYGVTSSTARRILQSLEKMSSPLADAKRIPSIVSSPLNSPLDRSGIDITDFQAKREKVDSQYPPVQRLMTPKPVSIATNRSVYFKPSLTPSGEFRKTNQRIDNKCSTGYEKNMTPGQNREQRESGFSYPNFSLPAANGLSSGVGGGGGKMRRERTRFVASKPLEEEEMEVPVLPKISLPITSSSLPTFNFSSPEITTSSPSPINSSQALTNKVQMTSPSSTGSPMFKFSSPIVKSTEANVLPPSSIGFTFSVPVAKTAELSGSSSTLEPIISSSAHHVTTVNSTNCKKTPPEDCEGPFRPAEILKEGSVLDILKSPGFASPKIDSVAAQPTATSPVVYTRPAISSFSSSGIGFGESLKAGSSWQCDTCLLQNKVTDNKCIACQAAKLSPRDTAKQTGIETPNKSGKTTLSASGTGFGDKFKPVIGTWDCDTCLVQNKPEAIKCVACETPKPGTCVKRALTLTVVSESAETMTASSSSCTVTTGTLGFGDKFKRPIGSWECSVCCVSNNAEDNKCVSCMSEKPGSSVPASSSSTVPVSLPSGGSLGLEKFKKPEGSWDCELCLVQNKADSTKCLACESAKPGTKSGFKGFDTSSSSSNSAASSSFKFGVSSSSSGPSQTLTSTGNFKFGDQGGFKIGVSSDSGSINPMSEGFKFSKPIGDFKFGVSSESKPEEVKKDSKNDNFKFGLSSGLSNPVSLTPFQFGVSNLGQEEKKEELPKSSSAGFSFGTGVINSTPAPANTIVTSENKSSFNLGTIETKSASVAPFTCKTSEAKKEEMPATKGGFSFGNVEPASLPSASVFVLGRTEEKQQEPVTSTSLVFGKKADNEEPKCQPVFSFGNSEQTKDENSSKSTFSFSMTKPSEKESEQPAKATFAFGAQTSTTADQGAAKPVFSFLNNSSSSSSTPATSAGGGIFGSSTSSSNPPVATFVFGQSSNPVSSSAFGNTAESSTSQSLLFSQDSKLATTSSTGTAVTPFVFGPGASSNNTTTSGFGFGATTTSSSAGSSFVFGTGPSAPSASPAFGANQTPTFGQSQGASQPNPPGFGSISSSTALFPTGSQPAPPTFGTVSSSSQPPVFGQQPSQSAFGSGTTPNSSSAFQFGSSTTNFNFTNNSPSGVFTFGANSSTPAASAQPSGSGGFPFNQSPAAFTVGSNGKNVFSSSGTSFSGRKIKTAVRRRK
